The supplement of paper PMC8256030
“And” between values parts separate entries of the source, which are not always exact repeats. Identical values can stand only once. This is one part of the list. This data set is noisy: repeats of one test often differ as much as different tests do.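 HEK293T cells were given each compound shortly before transfection with a reporter in which red mCherry is followed by the SARS-CoV-2 frameshift element and then GFP in the −1 frame, so GFP appears only after frameshifting.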

Assays:
[1] = system: SARS-CoV-2 -1 PRF reporter mCherry-FSE-GFP(-1); test: mCherry (red) intensity as percent of control; higher = higher upstream reporter expression; conditions: 10 µM; 24 h; HEK293T
[2] = system: SARS-CoV-2 -1 PRF reporter mCherry-FSE-GFP(-1); test: percent effect, decrease of GFP/mCherry ratio (-1 PRF reporter) relative to controls; higher = stronger frameshift inhibition; conditions: 10 µM; 24 h; HEK293T

Compound: C/C(=C\C(=O)OCCCCCCCCC(=O)O)C[C@@H]1OC[C@H](C[C@@H]2O[C@H]2[C@@H](C)[C@H](C)O)[C@@H](O)[C@H]1O [mupirocin]
- mCherry [1]: 95.9% and 95.4%
- percent effect [2]: -4.61% and -1.07%

Compound: CO[C@H]1O[C@@H]2O[C@@]3(C)CC[C@H]4[C@H](C)CC[C@@H]([C@H]1C)[C@@]24OO3 [artemether]
- mCherry [1]: 146%
- percent effect [2]: 1.53%

Compound: O=C(O)c1ccccc1C(=O)Nc1ccc(S(=O)(=O)Nc2nccs2)cc1 [phthalylsulfathiazole]
- mCherry [1]: 85.7%
- percent effect [2]: -0.057%

Compound: CC(C)C[C@H](N)C(=O)O [leucine]
- mCherry [1]: 127%
- percent effect [2]: -4.1%

Compound: C[C@H](NC(=O)[C@H](CC(=O)O)NC(=O)CNC(=O)CNC(=O)[C@H](C)NC(=O)[C@@H](N)Cc1c[nH]c2ccccc12)C(=O)N[C@@H](CO)C(=O)NCC(=O)N[C@@H](CCC(=O)O)C(=O)O [emideltide]
- mCherry [1]: 90%
- percent effect [2]: -11.5%

Compound: CCOc1ccccc1OC(c1ccccc1)C1CNCCO1 (configuration not stated) [reboxetine]
- mCherry [1]: 120%
- percent effect [2]: -1.72%

Compound: OC[C@H]1O[C@H](O[C@H]2[C@H](O)[C@@H](O)C(O)O[C@@H]2CO)[C@H](O)[C@@H](O)[C@@H]1O (some centres not stated)
- mCherry [1]: 108%
- percent effect [2]: -0.595%

Compound: O=C1/C(=C/c2cccs2)CCC/C1=C\c1cccs1
- mCherry [1]: 109%
- percent effect [2]: 1.3%

Compound: CC#CCn1c(N2CCC[C@@H](N)C2)nc2c1c(=O)n(Cc1nc(C)c3ccccc3n1)c(=O)n2C
- mCherry [1]: 82.4%
- percent effect [2]: -5.84%

Compound: NS(=O)(=O)c1cc2c(cc1Cl)NC(CSCC(F)(F)F)NS2(=O)=O (configuration not stated) [epitizide]
- mCherry [1]: 107%
- percent effect [2]: -2.19%

Compound: COc1ccc(-c2nc3cc(C4=NNC(=O)CC4C)ccc3[nH]2)cc1 (configuration not stated) [pimobendan]
- mCherry [1]: 123%
- percent effect [2]: -12.9%
